Reference: PubChem BioAssay AID504648 (National Center for Advancing Translational Sciences (NCATS), 2011)
About 610 (0.16%) of roughly 390,000 compounds were called active. The inconclusive results got no clear call from the source; some entries with a clear call stand among them for comparison. Calls come from the whole dose curve; as a rule, active = well fitted inhibition curve with a large enough effect; inconclusive = small, poorly fitted or top-dose-only effect, or effect the other way, or another doubt; inactive = no such curve, though single readings can be large or run the other way. Potencies beside an inconclusive call are fits to weak or partial responses and may not hold up.

Assay: Nrf2 qHTS screen for inhibitors: counterscreen for cytotoxicity
Conditions: A549 ARE-Fluc cells, CellTiter-Fluor viability, 18-24 h; series mostly up to 46 µM
How it was run: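 Cytotoxicity counterscreen: CellTiter-Fluor fluorescence was measured in A549 ARE_Fluc cells after 18-24 h of compound exposure in a concentration series. The subsequent BugLite luminescent read reports ARE-luciferase activity.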
Potency is the fitted concentration of half-maximal effect.

Row | SMILES | Potency
1 | CCCC(=O)Nc1ccc2oc(-c3ccc(OC)c(Br)c3)nc2c1 | inconclusive: 18.4 µM [falling, partial curve, poor fit]
2 | CC1CCC(NC(=O)c2ccc(CS(=O)(=O)c3ccc(Cl)cc3)o2)CC1 (stereo not given) | inactive
3 | O=Nc1c(O)c2ccccc2c2ccccc12 | inconclusive: 18.4 µM [falling, single point]
4 | O=c1[nH]ncc2c3ccccc3n(Cc3cccc(Cl)c3)c12 | inactive
5 | CN(C)S(=O)(=O)c1cccc(NC(=O)CSc2nc3ccccc3[nH]2)c1 | inactive
6 | Cc1cc(Br)ccc1NC(=O)CN(C)C(=O)C1CCN(c2ncnc3sc(C)c(C)c23)CC1 | active: 20.6 µM
7 | Cc1ccc(NCc2ccc(O)c3ncccc23)c(F)c1 | inactive
8 | CCOc1nc(Nc2ccccc2)nc(OCC)n1 | inconclusive: 2.91 µM [activator, full curve, poor fit]
9 | C(#Cc1ccccc1)Cn1nnc2ccccc21 | inconclusive: 1.3 µM [activator, partial curve, poor fit]
10 | COC(=O)/C(C(C)=O)=C(/C=C/C=C/N(C)C)N(C)C | inconclusive: 16.4 µM [falling, partial curve]
11 | CN(CCOc1ccc(Br)cc1)C(=O)CNC(=O)c1ccc2ccccc2c1 | inconclusive: 29.1 µM [falling, single point]
12 | CN(C)Cc1c(O)ccc2cc(-c3nc4ccccc4n3C)c(=O)oc12 | inconclusive: 16.4 µM [activator, partial curve]
13 | CC(C(=O)Nc1nccs1)c1ccc([N+](=O)[O-])cc1 (stereo not given) | inconclusive: 32.6 µM [activator, partial curve, poor fit]
14 | CCC(C)NC(=O)CSc1nnc(-c2cc(-c3cccs3)nc3ccccc23)o1 (stereo not given) | inactive
15 | Cc1ccc(C(=O)N/C(=C\c2ccc(-c3cc(Cl)ccc3Cl)o2)C(=O)NCc2cccnc2)cc1 | inconclusive: 18.4 µM [falling, single point]
16 | COc1ccc(-c2sc3cc4c(cc3c2-c2ccc(OCCN3CCOCC3)cc2)OCO4)cc1 | inactive
17 | COc1ccc(OC)c(-c2cc(C3CCN(c4ncccc4[N+](=O)[O-])CC3)[nH]n2)c1 | inconclusive: 32.6 µM [falling, partial curve, poor fit]
18 | CCN1/C(=C/c2ccc3cc(C)ccc3[n+]2CC)Sc2ccc3sccc3c21 | inconclusive: 7.31 µM [falling, partial curve, poor fit]
19 | COc1ccc(NC(=O)CN(C)C(=O)C2CCCO2)cc1 (stereo not given) | inactive
20 | O=C(Cn1ncc(Cl)c(Cl)c1=O)N1CCc2ccccc21 | inactive
21 | COc1ccc(NC(=O)c2nnn(Cc3nc(-c4cc(OC)c(OC)c(OC)c4)oc3C)c2C)cc1Cl | inactive
22 | CCC(C)n1c(=O)c2sccc2n2c(CCCC(=O)NCc3ccccc3Cl)nnc12 (stereo not given) | inactive
23 | CCOC(=O)Cn1c(=N)n(CCOc2ccc(F)cc2)c2ccccc21 | inactive
24 | Cc1nc(SCc2nc3cc(Cl)c(F)cc3[nH]2)c2oc3ccccc3c2n1 | inconclusive: 29.1 µM [falling, single point]

Row | SMILES | Potency
25 | Cc1cccn2c(=O)c(/C=C(\C#N)C(=O)NC3CCS(=O)(=O)C3)c(N3CC(C)OC(C)C3)nc12 (stereo not given) | inconclusive: 16.4 µM [falling, partial curve, poor fit]
26 | CCCCC(c1nnnn1CC1CCCO1)N1CCN(c2ccccc2)CC1 (stereo not given) | inconclusive: 9.2 µM [activator, partial curve, poor fit]
27 | CNC(=O)c1ccc2c(c1)N(Cc1cc(C)ccc1C)C(=O)c1ccccc1S2 | inactive
28 | Nc1c(C(=O)c2ccccc2)oc2ccc([N+](=O)[O-])cc12 | inactive
29 | CC(=O)Oc1ccc(C(=O)Nc2cccc(C(=O)NC(C)(C)C)c2)cc1 | inactive
30 | CCN(CC(=O)Nc1ccc(NC(C)=O)cc1)C(=O)/C=C/c1cn(-c2ccccc2)nc1-c1cccs1 | inconclusive: 25.9 µM [falling, partial curve, poor fit]
31 | CC(C)c1ccc(NC(=O)CN2C(=O)NC(Cc3c[nH]c4ccccc34)C2=O)cc1 (stereo not given) | inconclusive: 18.4 µM [falling, partial curve, poor fit]
32 | COc1ccccc1CCC(=O)N(C)CC(=O)Nc1ccc(Cl)c(C(F)(F)F)c1 | inconclusive: 18.4 µM [falling, single point]
33 | O=C(Nc1ccc(OC(F)(F)F)cc1)Nc1cccc([N+](=O)[O-])c1 | inconclusive: 29.1 µM [falling, single point]
34 | Cc1cccn2c(=O)c3cc(C(=O)NCC4CCCO4)c(=N)n(Cc4cccnc4)c3nc12 (stereo not given) | inconclusive: 18.4 µM [activator, partial curve]
35 | COc1ccc(C2c3c(n(C)c4ccccc34)C(=O)N2CC(=O)Nc2cccc(Cl)c2)cc1 (stereo not given) | inactive
36 | O=C(c1cnc(N2CCN(c3ncccn3)CC2)c2ccccc12)N1CCN(c2ccccn2)CC1 | inactive
37 | Nc1ccccc1Nc1ccccc1 | inconclusive: 29.1 µM [falling, single point]
38 | Cc1cccc(CC(C)NC(=O)CCc2nnc(-c3ccccc3)o2)n1 (stereo not given) | inactive
39 | Cc1ccc2nc3sc(C(=O)N4CCCc5ccccc54)c(N)c3cc2c1 | inconclusive: 29.1 µM [falling, single point]
40 | Cc1ccc(NC(=O)c2oc(=O)c3ccccc3c2-c2ccccc2)c(C)c1 | inconclusive: 20.6 µM [falling, partial curve, poor fit]
41 | CC(=O)O[C@]1(C(C)=O)CC[C@H]2[C@@H]3C=C(Cl)C4=CC(=O)CC[C@]4(C)[C@H]3CC[C@@]21C | inactive
42 | COc1ccc(-c2sc3ccccc3c2-c2ccc(OCCN(C)C)cc2)cc1 | inconclusive: 18.4 µM [falling, single point]
43 | N#Cc1ccsc1NC(=O)COc1ccc(-c2nnco2)cc1 | inconclusive: 2.31 µM [activator, partial curve]
44 | O=C(/C=C/c1ccco1)NC(=S)Nc1ccc(O)c(-c2nc3ccccc3s2)c1 | inconclusive: 25.9 µM [falling, partial curve, poor fit]
45 | CC(=O)Nc1ccc(NC(=O)Nc2ccc(C)c(C)c2)cc1 | inactive
46 | O=C(c1ccccc1)c1c2c(cc3sc4ccccc4[n+]13)-c1cccc3cccc-2c13 | active: 16.4 µM
47 | CCOc1ccc(N(CC(=O)Nc2cccc(Cl)c2)S(=O)(=O)c2c(C)noc2C)cc1 | inconclusive: 32.6 µM [falling, single point]
48 | Cc1cc(C)n(CC(O)CN(c2ccccc2)S(=O)(=O)c2ccccc2)n1 (stereo not given) | inconclusive: 20.6 µM [falling, partial curve, poor fit]

Row | SMILES | Potency
49 | O=C(c1nc2n(n1)C(c1ccc(Cl)cc1)C=C(c1ccccc1)N2)N1CCOCC1 (stereo not given) | inconclusive: 17.8 µM [activator, single point]
50 | COc1ccc(C(=O)/C=C/c2cn(CC(O)CN3CCc4ccccc43)c3ccccc23)cc1 (stereo not given) | inconclusive: 16.4 µM [falling, partial curve, poor fit]
51 | COc1cc(NS(=O)(=O)c2ccc(-c3ccc(=O)[nH]n3)o2)cc(OC)c1OC | inactive
52 | COc1ccc(C(=O)COC(=O)CN2CC(=O)Oc3ccccc32)cc1Br | inactive
53 | COc1ccccc1NC(=O)Cn1c(=O)c(CNc2ccccc2)cc2cc(OC)c(OC)cc21 | inactive
54 | C=CCn1cc(-c2ccc(Cl)cc2)cc(C#N)c1=O | inactive
55 | S=c1[nH]nc(-c2cc(-c3ccccc3)n[nH]2)n1/N=C/C(Br)=C/c1ccccc1 | inconclusive: 29.1 µM [falling, single point]
56 | Cc1cccc2cc(CN(CC3CCCO3)C(=O)NC3CCCCC3)c(=O)[nH]c12 (stereo not given) | inactive
57 | COc1cc(C(=O)N2CCN(c3ncnc4sc(C)c(C)c34)CC2)cc(OC)c1OC | inconclusive: 8.2 µM [falling, partial curve, poor fit]
58 | CN(Cc1cccc2cnccc12)C(=O)c1cc(COc2ccc(F)cc2Cl)on1 | inactive
59 | COc1cccc(NC(=O)Cn2cc(S(=O)(=O)Cc3ccccc3F)c3ccccc32)c1 | inconclusive: 20.6 µM [falling, partial curve, poor fit]
60 | CCn1c2ccccc2c2cc(N=C3SC(CC(=O)Nc4ccccc4)C(=O)N3C)ccc21 (stereo not given) | inconclusive: 29.1 µM [falling, partial curve, poor fit]
61 | CN(C)CCNc1nc2sc3c(c2c(=O)n1-c1ccc(F)cc1)CCCCC3 | inactive
62 | CCOC(=O)N1CCN(Cc2nc3cc(NC(=O)c4cccc(C)c4)ccc3n2C(C)C)CC1 | inconclusive: 7.31 µM [falling, partial curve, poor fit]
63 | Cc1cccc(CSc2cccc3cccnc23)c1 | inactive
64 | COc1ccc(NC(=O)/C(C#N)=C/c2c(C)nn(-c3ccc(F)cc3)c2Cl)cc1Cl | inactive
65 | CCCc1cc2c(=O)c(-c3ccc4c(c3)OCCO4)c(C)oc2cc1OS(C)(=O)=O | inconclusive: 13 µM [falling, partial curve, poor fit]
66 | CC(c1nccs1)N(C)C(=O)c1cn(Cc2cccc3ccccc23)nn1 (stereo not given) | inactive
67 | O=C(NCc1ccco1)c1ccc2c(c1)N(Cc1ccc(Cl)cc1)C(=O)c1ccccc1S2(=O)=O | inactive
68 | CCOc1ccc(NC(=NCc2ccc3c(c2)OCO3)SC2CC(=O)N(c3ccc(OCC)cc3)C2=O)cc1 (stereo not given) | inactive
69 | CCn1c(SCC(=O)Nc2ccccc2)nc2nc3c(cc2c1=O)COC(C)(C)C3 | inactive
70 | CCCCOc1ncnc2c1[nH]c1ccccc12 | inconclusive: 10.3 µM [falling, partial curve, poor fit]

2 compounds drawn at random from those above:
Row | SMILES | Potency
42 | COc1ccc(-c2sc3ccccc3c2-c2ccc(OCCN(C)C)cc2)cc1 | inconclusive: 18.4 µM [falling, single point]
40 | Cc1ccc(NC(=O)c2oc(=O)c3ccccc3c2-c2ccccc2)c(C)c1 | inconclusive: 20.6 µM [falling, partial curve, poor fit]

Among those listed so far, 2 have a CF3 group.
Row | SMILES | Potency
32 | COc1ccccc1CCC(=O)N(C)CC(=O)Nc1ccc(Cl)c(C(F)(F)F)c1 | inconclusive: 18.4 µM [falling, single point]
33 | O=C(Nc1ccc(OC(F)(F)F)cc1)Nc1cccc([N+](=O)[O-])c1 | inconclusive: 29.1 µM [falling, single point]
